Test results reported in the supplement of paper PMC7752906.
Counter-ions that a name gives are not always drawn. The list shows a part of the results. Repeats in this data set agree poorly, so a single value says little.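 Wells held roughly 40 S. mansoni schistosomula, imaged in bright field over time against wells given 0.1% DMSO. The paper defines hits as drugs with a Mahalanobis distance of at least 2.47, three standard deviations above the DMSO control mean. Degeneracy is the proportion of worms classified as opaque.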 Square brackets hold non-standard residues; d marks the D form. Peptide text beside a SMILES is read from it. pGlu = O=C1CC[C@@H](C(=O)O)N1; Thz = O=C(O)[C@@H]1CSCN1

These compounds were tested on Schistosoma mansoni schistosomula (assay: Mahalanobis distance of static-rate-frequency phenotype descriptors from DMSO controls (dimensionless); higher = stronger phenotypic change versus DMSO). Conditions: 10 µM; 72 h.

SMILES	Mahalanobis distance
O=P(O)(O)C(O)(Cn1ccnc1)P(=O)(O)O [Zoledronic Acid]	inactive: 1.98
CC(C)(CO)[C@@H](O)C(=O)NCCC(=O)O [Pantothenic Acid]	inactive: 1.59
Cc1cc(C(C)(C)C)cc(C)c1CC1=NCCN1 [Xylometazoline]	active: 4.88
CCN(CCCCOC(=O)c1ccc(OC)c(OC)c1)C(C)Cc1ccc(OC)cc1 (configuration not stated) [Mebeverine]	inactive: 2.07
COc1cc2nc(N3CCN(C(=O)C4COc5ccccc5O4)CC3)nc(N)c2cc1OC (configuration not stated) [Doxazosin]	active: 3.45
CC(=O)Nc1ccc(OC(=O)c2ccccc2O)cc1 [Acetaminosalol]	inactive: 1.85
O=C(CCBr)N1CCN(C(=O)CCBr)CC1 [Pipobroman]	inactive: 1.7
CCCCC1C(=O)N(c2ccccc2)N(c2ccc(O)cc2)C1=O (configuration not stated) [Oxyphenbutazone]	inactive: 1.4
CCOC(=O)/C=C(C)/C=C/C=C(C)/C=C/c1c(C)cc(OC)c(C)c1C [Etretinate]	inactive: 1.62
CCOC(=O)Nc1nc2ccccc2[nH]1 [Lobendazole]	inactive: 1.76
O=C(O)c1ccc[n+]([O-])c1 [Oxiniacic Acid]	inactive: 1.56
NC[C@H]1O[C@H](O[C@H]2[C@H](O)[C@@H](O[C@H]3O[C@H](CO)[C@@H](O)[C@H](N)[C@H]3O)[C@H](N)C[C@@H]2N)[C@H](N)C[C@@H]1O [Tobramycin]	inactive: 1.55
Cc1ccc(-c2cc(C(F)(F)F)nn2-c2ccc(S(N)(=O)=O)cc2)cc1 [Celecoxib]	active: 2.66
Nc1ccc(S(=O)(=O)Nc2nccs2)cc1 [Sulfathiazole]	inactive: 1.98
CNCC(O)c1ccc(O)c(O)c1 (configuration not stated) [Racepinephrine]	inactive: 1.3
O=C(O)C1=C(CSc2nnnn2CS(=O)(=O)O)CS[C@@H]2[C@H](NC(=O)[C@H](O)c3ccccc3)C(=O)N12 [Cefonicid Sodium]	inactive: 1.5
CCCCCCOc1ccccc1C(N)=O [Exalamide]	inactive: 2.25
NC[C@H](O)c1ccc(O)c(O)c1 [Norepinephrine]	inactive: 2
O=C(CCCl)NCCc1ccccc1 [Fenaclon]	inactive: 2.03
CC(=O)Nc1c(I)cc(I)c(C(=O)O)c1I [Acetriazoic Acid]	inactive: 1.3
Cc1cc2cc3c(C)cc(=O)oc3c(C)c2o1 [Trioxsalen]	inactive: 2.06
CC(=O)Nc1nnc(S(N)(=O)=O)s1 [Acetazolamide]	inactive: 1.89
CC(C)Oc1ccc2c(=O)c(-c3ccccc3)coc2c1 [Ipriflavone]	active: 6.26
Clc1ccc2nsnc2c1NC1=NCCN1 [Tizanidine Hydrochloride]	inactive: 1.91

SMILES	Mahalanobis distance
CO/N=C(\C(=O)N[C@@H]1C(=O)N2C(C(=O)O)=C(COC(C)=O)CS[C@H]12)c1csc(N)n1 [Cefotaxime]	active: 4.78
CO/N=C(\C(=O)N[C@@H]1C(=O)N2C(C(=O)O)=C(COC(C)=O)CS[C@H]12)c1csc(N)n1 [Cefotaxime Sodium]	inactive: 1.74
COc1cc(CNC(=O)CCCC/C=C/C(C)C)ccc1O [Capsaicin]	inactive: 1.68
O=C(NCCCN1CCOCC1)c1ccc(Cl)cc1 [Eprobemide]	active: 3.63
C[C@]12CC[C@@H]3c4ccc(O)cc4C[C@@H](CCCCCCCCC[S+]([O-])CCCC(F)(F)C(F)(F)F)[C@H]3[C@@H]1CC[C@@H]2O (some centres not stated) [Fulvestrant]	active: 3.26
COC(=O)[C@H](Cc1ccccc1)NC(=O)[C@@H](N)CC(=O)O [Aspartame] (H-Asp-Phe-OMe)	inactive: 1.53
O=C1CC[C@@H](C(=O)N2CSC[C@H]2C(=O)O)N1 [Pidotimod] ([pGlu]-[Thz]-OH)	active: 2.64
Oc1c(Cl)cc(Cl)c2cccnc12 [chloroxine]	active: 2.5
c1ccc(-c2ccc(C(c3ccccc3)n3ccnc3)cc2)cc1 (configuration not stated) [Bifonazole]	active: 2.76
CCOc1nc2cccc(C(=O)O)c2n1Cc1ccc(-c2ccccc2-c2nnn[nH]2)cc1 [Candesartan]	inactive: 1.94
CC[C@H](C)[C@H](N)C(=O)O [Isoleucine (l)]	inactive: 1.97
C[C@H]1C[C@H]2[C@@H]3CCC4=CC(=O)C=C[C@]4(C)[C@@]3(F)[C@@H](O)C[C@]2(C)[C@@]1(O)C(=O)COP(=O)(O)O [Betamethasone Sodium Phosphate]	inactive: 1.57
Nc1ncnc2c1ncn2[C@@H]1O[C@H](CO)[C@@H](O)[C@@H]1O [Vidarabine]	active: 3.1
COC(=O)Nc1nc2cc(Sc3ccccc3)ccc2[nH]1 [Fenbendazole]	active: 2.86
CC(=O)N(CC(O)CO)c1c(I)c(C(=O)NCC(O)CO)c(I)c(C(=O)NCC(O)CO)c1I (configuration not stated) [Iohexol]	inactive: 2.19
CC(=O)N(CC(O)CO)c1c(I)c(C(=O)NCCO)c(I)c(C(=O)NCC(O)CO)c1I (configuration not stated) [Ioxilan]	inactive: 2.37
CCCCCCCCCCCCCCCC(=O)OC[C@H](O)[C@H]1OC(=O)C(O)=C1O [Ascorbyl Palmitate]	inactive: 2.14
CNCCc1ccccn1 [Betahistine]	active: 2.9
CC=CC(=O)N(CC)c1ccccc1C [Crotamiton]	inactive: 1.42
CN(C)C(=N)NC(=N)N [metformin]	inactive: 1.4
CCCNC(=O)NS(=O)(=O)c1ccc(Cl)cc1 [Chlorpropamide]	inactive: 1.66
CC(=O)O[C@]1(C(C)=O)CC[C@H]2[C@@H]3C=C(Cl)C4=CC(=O)CC[C@]4(C)[C@H]3CC[C@@]21C [Chlormadinone Acetate]	active: 2.49
Clc1cccc(Cl)c1NC1=NCCN1 [Clonidine]	active: 2.79
CO[C@H]1/C=C/O[C@@]2(C)Oc3c(C)c(O)c4c(O)c(c5c(nc6cc(C)ccn65)c4c3C2=O)NC(=O)/C(C)=C\C=C\[C@H](C)[C@H](O)[C@@H](C)[C@@H](O)[C@@H](C)[C@H](OC(C)=O)[C@@H]1C [Rifaximin]	inactive: 1.72

Looked up one by one from the entries so far, 3 records:
SMILES	Mahalanobis distance
COC(=O)[C@H](Cc1ccccc1)NC(=O)[C@@H](N)CC(=O)O [Aspartame] (H-Asp-Phe-OMe)	inactive: 1.53
CC(=O)O[C@]1(C(C)=O)CC[C@H]2[C@@H]3C=C(Cl)C4=CC(=O)CC[C@]4(C)[C@H]3CC[C@@]21C [Chlormadinone Acetate]	active: 2.49
COc1cc(CNC(=O)CCCC/C=C/C(C)C)ccc1O [Capsaicin]	inactive: 1.68

(list continues)

SMILES	Mahalanobis distance
Cc1cc2nc3c(=O)[nH]c(=O)nc-3n(C[C@H](O)[C@H](O)[C@H](O)CO)c2cc1C [riboflavin]	inactive: 2.14
O=C1NCC2(CCN(CCc3ccccc3)CC2)O1 [Fenspiride Hydrochloride]	inactive: 2.12
CN(C)CCOC(c1ccccc1)c1ccccc1.Cn1c(=O)c2[nH]c(Cl)nc2n(C)c1=O [Dimenhydrinate]	inactive: 2.37
CC(=O)[C@@]1(O)CC[C@H]2[C@@H]3CCC4=CC(=O)CC[C@]4(C)[C@H]3CC[C@@]21C [Hydroxyprogesterone]	inactive: 1.3
CCN(CC)C(=O)c1ccc(O)c(OC)c1 [Ethamivan]	inactive: 1.45
O=C(c1ccc(F)cc1)C1CCN(CCn2c(=O)[nH]c3ccccc3c2=O)CC1 [Ketanserin Tartrate]	active: 2.57
C[C@H](C(=O)O)c1cccc(C(=O)c2ccccc2)c1 [Dexketoprofen]	inactive: 1.38
NCCS [Cysteamine Hydrochloride]	active: 2.79
COCCOC(=O)C1=C(C)NC(C)=C(C(=O)OC(C)C)C1c1cccc([N+](=O)[O-])c1 (configuration not stated) [Nimodipine]	inactive: 1.68
CN1C(C(=O)Nc2ccccn2)=C(O)c2ccccc2S1(=O)=O [Piroxicam]	inactive: 2.45
CC1(C)[C@@H](O)CC[C@]2(C)[C@H]3C(=O)C=C4[C@@H]5C[C@@](C)(C(=O)O)CC[C@]5(C)CC[C@@]4(C)[C@]3(C)CC[C@@H]12 [Enoxolone]	inactive: 1.82
O=C(O)/C=C/C(=O)O [Fumaric Acid]	inactive: 1.56
O=C(O)C[C@H](O)C[C@H](O)/C=C/c1c(C2CC2)nc2ccccc2c1-c1ccc(F)cc1 [Pitavastatin Calcium]	active: 4.97
Cc1cc2c(OCC(CNC(C)(C)C)OC(=O)c3ccccc3)cccc2[nH]1 (configuration not stated) [Bopindolol]	inactive: 2.41
NC(=O)c1ccc[n+]([C@@H]2O[C@H](COP(=O)([O-])OP(=O)(O)OC[C@H]3O[C@@H](n4cnc5c(N)ncnc54)[C@H](O)[C@@H]3O)[C@@H](O)[C@H]2O)c1 [Nadide]	inactive: 2.25
NCC(=O)CCC(=O)O [Aminolevulinic Acid Hydrochloride]	inactive: 2.38
COc1ccc([C@@H]2Sc3ccccc3N(CCN(C)C)C(=O)[C@@H]2OC(C)=O)cc1 [Diltiazem Hydrochloride]	active: 4.51
COc1ccc([C@@H]2Sc3ccccc3N(CCN(C)C)C(=O)[C@@H]2OC(C)=O)cc1 [Diltiazem]	active: 5.69
Cc1cn([C@H]2C[C@H](N=[N+]=[N-])[C@@H](CO)O2)c(=O)[nH]c1=O [Zidovudine [azt]]	inactive: 1.66
NS(=O)(=O)Cc1noc2ccccc12 [Zonisamide]	inactive: 2.15
CN(C)CCN(Cc1ccc(Cl)cc1)c1ccccn1 [Chloropyramine Hydrochloride]	active: 2.89
CCCCCCCCCCOc1cc2c(O)c(C(=O)OCC)cnc2cc1OCC [Decoquinate]	active: 2.54
CC(=O)OCC(=O)[C@@]1(O)[C@H](OC(C)=O)C[C@H]2[C@@H]3CCC4=CC(=O)C=C[C@]4(C)[C@@]3(F)[C@@H](O)C[C@@]21C [Triamcinolone Diacetate]	active: 2.57
CC(C)Cn1cnc2c(N)nc3ccccc3c21 [Imiquimod]	inactive: 2.24

Copied from the list.
Value for Nc1ccc(S(=O)(=O)Nc2nccs2)cc1 [Sulfathiazole] under Mahalanobis distance: inactive: 1.98
Value for CCN(CCCCOC(=O)c1ccc(OC)c(OC)c1)C(C)Cc1ccc(OC)cc1 (configuration not stated) [Mebeverine] under Mahalanobis distance: inactive: 2.07
